± gives the standard deviation of the averaged measurements. Some of the results follow. Many values rest on one well or one pass, so single values are uncertain.
Target: T1, NSUN6 (UniProt Q8TEA1)
T1 sequence: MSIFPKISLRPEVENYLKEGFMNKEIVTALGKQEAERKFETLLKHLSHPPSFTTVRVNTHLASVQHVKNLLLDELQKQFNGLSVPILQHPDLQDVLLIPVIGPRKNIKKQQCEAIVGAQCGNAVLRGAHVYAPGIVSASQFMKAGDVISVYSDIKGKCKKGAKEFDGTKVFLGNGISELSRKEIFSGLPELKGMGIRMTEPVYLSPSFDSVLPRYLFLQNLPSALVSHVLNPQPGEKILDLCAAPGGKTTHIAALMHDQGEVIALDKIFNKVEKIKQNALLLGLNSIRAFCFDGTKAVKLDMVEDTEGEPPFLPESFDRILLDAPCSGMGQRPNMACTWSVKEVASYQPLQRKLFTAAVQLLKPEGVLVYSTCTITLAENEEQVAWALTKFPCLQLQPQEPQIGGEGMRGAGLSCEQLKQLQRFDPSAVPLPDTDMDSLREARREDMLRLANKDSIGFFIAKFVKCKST
Test: m5C methylation level at the target C (C/(C+U) bisulfite reads) (fraction); higher = more methylation by NSUN6; extreme values may be limits of the assay
Conditions: HEK293T (wild-type)
Method: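 High-throughput mutagenesis reporter. About 140 bp oligo-pool variants of four natural Type II m5C substrates (substrate #1 chr15:91425541; #2 RAB15 3'UTR chr14:65413377; #3 SULT2A1 5'UTR chr19:48389569; #4 NAAA CDS chr4:76857361) were cloned as 3'UTR elements of psiCHECK-2 luciferase and transfected into wild-type HEK293T cells. Total RNA was taken 48 h later and m5C level was measured by targeted bisulfite sequencing as C/(C+U) reads at the m5C site (one library).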

[1] = parent substrate: substrate #1 (main figure)

Sequence	m5C methylation level at the target C [1]	m5C methylation level at the target C (parent substrate: substrate #2)	m5C methylation level at the target C (parent substrate: substrate #3)	m5C methylation level at the target C (parent substrate: substrate #4)
GCUUUG	0.00546	0.000811	0.00445	0
GCUAUA	0.00231	0.00118	0.00202	0.0012
UCAACU	0.000383	0	0.00224	0
CCCUGC	0.0014	0	0.00109	0.000903
ACAAUG	0	0	0.00105	0.000982
UCAUCU	0.0033	0.000989	0.0085	0.00787
UCAGAC	0.00341	0	0.00437	0.00361
ACAUCG	0	0	0	0.000708
CCCGCU	0.000567	0	0.00116	0
ACGCUU	0.00923	0.000999	0	0.00125
GCCUCC	0.00211	0.00587	0.00172	0
ACGGCU	0.00174	0	0.000459	0.000921
UCCACU	0.00152	0	0.00261	0.000496
UCGUUA	0.000513	0.00134	0.00369	0.00149
UCAGCC	0.000629	0.00111	0.000762	0.00839
ACGGCG	0.000564	0.0011	0.00175	0
GCAGGG	0	0	0.00217	0
ACAGAU	0.00251	0	0.00129	0.00124
UCCUCU	0.00104	0	0	0
UCUUUA	0.00285	0.00288	0	0.00102
GCCUUU	0.00197	0	0.0101	0.000557
GCGGCU	0	0.00171	0	0.00109
ACGGAU	0.00238	0.00121	0.00127	0
GCACGA	0.000862	0	0.00133	0
CCCGAC	0.000598	0.00371	0.000678	0

Sequence	m5C methylation level at the target C [1]	m5C methylation level at the target C (parent substrate: substrate #2)	m5C methylation level at the target C (parent substrate: substrate #3)	m5C methylation level at the target C (parent substrate: substrate #4)
ACAUUU	0.00764	0	0	0.00716
ACCGUA	0.00178	0	0.00138	0.00176
UCUUAA	0.000547	0	0.00492	0.00134
ACUGAC	0.00131	0.00112	0	0.00374
GCCCCA	0.000512	0.0126	0.00796	0.00282
ACCGUC	0	0.00551	0.0053	0
UCCAGA	0.00241	0.00186	0.00103	0.00207
GCGAUA	0.00372	0	0.000404	0.001
UCCCGU	0.00354	0	0.000497	0.000975
UCUGUU	0.00161	0.00103	0	0.000433
CCUCCA	0.477	0.227	0.476 ± 0.0065	0.561
UCCACG	0.000858	0.00131	0.000469	0
CCGUCA	0	0.00146	0.00203	0.00117
CCACGU	0.00483	0.00161	0.000603	0
ACGGGG	0.0106	0	0.00229	0.00357
UCUCGA	0.00631	0	0.0506	0.00995
GCUAGG	0.000876	0.00253	0.00223	0
UCAAGU	0	0	0	0.00122
ACACCG	0.000503	0	0	0.00124
UCUCAA	0.0108	0.00575	0.0188	0.0058
GCUGGU	0.00115	0	0.000767	0
CCCUAG	0.00123	0	0	0.000531
CCUAAU	0	0.00353	0.00118	0
GCGCUA	0.00754	0	0.00145	0.0024
UCCCGC	0	0	0.000674	0.0013

Sequence	m5C methylation level at the target C [1]	m5C methylation level at the target C (parent substrate: substrate #2)	m5C methylation level at the target C (parent substrate: substrate #3)	m5C methylation level at the target C (parent substrate: substrate #4)
ACGUGG	0	0.000977	0.00222	0.000595
UCAGCA	0	0	0.00458	0.00178
ACUACU	0.000935	0.0023	0.00922	0
UCUAAA	0.006	0.000976	0	0.00109
CCAGAC	0.00181	0.00149	0	0.00106
GCACAA	0.00791	0	0.00106	0.00101
CCACCG	0	0.00471	0	0
CCUCGA	0.00303	0.0108	0.0157	0.0162
CCCCGG	0.00235	0.000705	0.00122	0
UCGCAG	0.00994	0.000858	0.000824	0.00246
UCAGAU	0	0	0.00124	0.000834
ACCAUA	0.0065	0.00144	0	0.000821
UCGAAA	0.00125	0.00462	0.00151	0
GCCCUU	0.00395	0.000949	0	0.00142
CCAAGG	0.0021	0.000778	0.000578	0.00367
ACAAUC	0	0	0	0
UCUAGU	0.00116	0.00139	0	0.00285
ACUCCU	0	0	0	0
GCUUUA	0.000609	0.00719	0.00252	0.00373
GCGAUC	0.00474	0.00245	0.000951	0.00292
ACCCAU	0	0.00129	0.00116	0.000665
UCGACC	0.000952	0	0.000531	0.00204
CCUCCU	0	0.002	0.000655	0
UCUUGC	0	0.00633	0	0.00433
CCAUCG	0.000963	0	0	0.000509

Individual results from the list.
Entry of ACUCCU under m5C methylation level at the target C [1]: 0
Entry of ACUACU under m5C methylation level at the target C (parent substrate: substrate #3): 0.00922
Entry of CCAAGG under m5C methylation level at the target C (parent substrate: substrate #2): 0.000778
Entry of CCAGAC under m5C methylation level at the target C (parent substrate: substrate #3): 0

(next part)

Sequence	m5C methylation level at the target C [1]	m5C methylation level at the target C (parent substrate: substrate #2)	m5C methylation level at the target C (parent substrate: substrate #3)	m5C methylation level at the target C (parent substrate: substrate #4)
UCUAAG	0	0	0.000695	0
GCUAAG	0.000511	0	0.000409	0.00205
ACUGUC	0	0.00295	0	0
GCCACU	0.000762	0.014	0.000864	0.000695
GCGCGU	0	0	0.00402	0.00291
UCGUUG	0.000926	0	0.000923	0
UCGUGU	0.000779	0	0.00992	0.00202
UCGGGA	0.00403	0.00124	0.00592	0.00069
ACUACC	0.00619	0.00316	0.00124	0.00084
CCCUUA	0	0	0.00364	0.000794
UCUUUC	0	0.00515	0	0.00172
GCGUAA	0.00357	0	0.00184	0.00153
CCUGUA	0.00238	0.00417	0.00044	0.00105
ACCCCG	0	0.00652	0.000961	0
ACCCAG	0	0.00822	0	0
UCAUGA	0.00193	0.00288	0	0
GCAGGC	0.000855	0	0.00271	0.00156
CCGAUC	0	0.00147	0	0.00219
GCCAAG	0.0013	0	0.00527	0.00385
UCAUCG	0	0	0.000533	0
GCGCGA	0.00135	0.00105	0.00388	0.00778
CCCCCU	0.00724	0	0.00134	0
GCAGAG	0.000906	0.00131	0.00379	0
CCCUGU	0	0.000844	0.000739	0
GCGACC	0.000927	0.00433	0	0.000837

Sequence	m5C methylation level at the target C [1]	m5C methylation level at the target C (parent substrate: substrate #2)	m5C methylation level at the target C (parent substrate: substrate #3)	m5C methylation level at the target C (parent substrate: substrate #4)
ACCGAG	0	0.00125	0.00121	0
ACAGGG	0	0	0.00123	0.00372
GCUUCC	0.00212	0.000827	0.00348	0.00123
CCUUAU	0	0.00551	0.000487	0.000991
CCCAGU	0	0.00413	0.00131	0
ACAUAC	0	0	0	0
UCCAAG	0.00154	0	0.00756	0.00155
GCAAUC	0.00081	0.000986	0.00697	0
CCCACA	0	0.00234	0.00137	0.000661
ACGCAC	0.000481	0	0	0.0142
ACGUUG	0.00185	0.00348	0.00704	0
CCGGCC	0	0	0.0058	0.00111
UCAUUC	0.0047	0	0	0.0011
GCAAAG	0.00161	0.00425	0.00375	0.00776
ACGACA	0.00633	0.00606	0.00143	0
CCGGAU	0.000851	0	0.000722	0.00185
UCACCG	0.0074	0	0.00522	0
ACGUAA	0	0	0.00201	0.00577
UCUUGA	0	0.00111	0.00137	0
GCUCAU	0	0.00551	0.00348	0.00206
GCCCGU	0	0	0.00167	0.000977
ACUCGC	0.000759	0	0.000621	0.0108
UCAUGG	0.00139	0.000864	0.000586	0.00125
UCAAUC	0	0	0.00225	0.000892
CCGUGA	0.00188	0.0158	0	0.00258

Sequence	m5C methylation level at the target C [1]	m5C methylation level at the target C (parent substrate: substrate #2)	m5C methylation level at the target C (parent substrate: substrate #3)	m5C methylation level at the target C (parent substrate: substrate #4)
UCUGGC	0.00121	0	0.000804	0.00233
ACUCUC	0.00671	0.00086	0	0.000953
CCCAGA	0.00216	0	0.00173	0
ACUUUU	0.000662	0	0.00585	0.00137
UCAGCU	0	0	0	0.00182
CCACAA	0	0.00109	0.00865	0
GCGGCA	0.0149	0.0018	0.00205	0.0094
UCCAUG	0	0.00513	0.000817	0.000526
CCUCCG	0.000804	0	0	0.000852
ACUCAU	0	0.00176	0	0.00328
ACAAUA	0.00244	0.00245	0.000888	0
UCCCCU	0	0.00614	0.001	0
CCCAUC	0	0.00149	0.000934	0.00105
UCCAUC	0.00439	0.00204	0	0.000844
UCACGG	0	0	0	0.00631
CCUAGU	0	0	0.00122	0
CCGGUG	0.00772	0	0.00476	0.00174
UCAACC	0	0	0.000625	0.000521
ACUUGC	0.000521	0	0.000508	0
UCGCAA	0	0	0.00104	0.00288

From the supplement of paper PMC8288183
